Reference: article PMC10873344
No constants are given. Whether binding was seen depends on the method and setting. In cells and extracts the contact can be indirect. Binding calls can cover weak binding; strength is not graded here.

Legend:
Assay in all cases: co-IP; anti-FLAG agarose IP from lysates of SEL1L-/- HEK293T cells transfected with SEL1L-FLAG variants, blots for endogenous partners; 150 mM NaCl, 0.2% NP-40, 0.1% Triton X-100, 25 mM Tris-HCl pH 7.5, overnight at 4 C
[1] = biological target: mouse SEL1L S658P-FLAG (mouse)
[2] = biological target: mouse SEL1L F668S-FLAG (mouse)
[3] = biological target: mouse SEL1L F668N-FLAG (mouse)
[4] = biological target: mouse SEL1L F668H-FLAG (mouse)
[5] = biological target: mouse SEL1L S658P/F668K-FLAG (mouse)
[6] = biological target: mouse SEL1L S658A-FLAG (mouse)
[7] = biological target: mouse SEL1L S658P/F668S-FLAG (mouse)
[8] = biological target: mouse SEL1L S658D-FLAG (mouse)
[9] = biological target: mouse SEL1L F668A-FLAG (mouse)
[10] = biological target: mouse SEL1L F668D-FLAG (mouse)
[11] = biological target: mouse SEL1L F668K-FLAG (mouse)
[12] = biological target: mouse SEL1L S658K-FLAG (mouse)
[13] = biological target: mouse SEL1L S658P/F668A-FLAG (mouse)
[14] = biological target: mouse SEL1L F668Y-FLAG (mouse)
[15] = biological target: mouse SEL1L S658P/F668C-FLAG (mouse)
[16] = biological target: mouse SEL1L S658P/F668H-FLAG (mouse)
[17] = biological target: mouse SEL1L F668W-FLAG (mouse)
[18] = biological target: mouse SEL1L S658P/F668Y-FLAG (mouse)
[19] = biological target: mouse SEL1L F668M-FLAG (mouse)
[20] = biological target: mouse SEL1L S658P/F668D-FLAG (mouse)
[21] = biological target: mouse SEL1L F668C-FLAG (mouse)
[22] = biological target: mouse SEL1L S658P/F668M-FLAG (mouse)

Measured: binding

B1: UBE2J1, endogenous human (enzyme, UniProt Q9Y385 1-318)
chain: METRYNLKSPAVKRLMKEAAELKDPTDHYHAQPLEDNLFEWHFTVRGPPDSDFDGGVYHGRIVLPPEYPMKPPSIILLTANGRFEVGKKICLSISGHHPETWQPSWSIRTALLAIIGFMPTKGEGAIGSLDYTPEERRALAKKSQDFCCEGCGSAMKDVLLPLKSGSDSSQADQEAKELARQISFKAEVNSSGKTISESDLNHSFSLTDLQDDIPTTFQGATASTSYGLQNSSAASFHQPTQPVAKNTSMSPRQRRAQQQSQRRLSTSPDVIQGHQPRDNHTDHGGSAVLIVILTLALAALIFRRIYLANEYIFDFEL
binds: [1]

B2: DERL2, endogenous human (protein, UniProt Q9GZP9 1-239)
chain: MAYQSLRLEYLQIPPVSRAYTTACVLTTAAVQLELITPFQLYFNPELIFKHFQIWRLITNFLFFGPVGFNFLFNMIFLYRYCRMLEEGSFRGRTADFVFMFLFGGFLMTLFGLFVSLVFLGQAFTIMLVYVWSRRNPYVRMNFFGLLNFQAPFLPWVLMGFSLLLGNSIIVDLLGIAVGHIYFFLEDVFPNQPGGIRILKTPSILKAIFDTPDEDPNYNPLPEERPGGFAWGEGQRLGG
binds: [1]

B3: OS9 (Osteosarcoma amplified 9), endogenous human (protein, UniProt Q13438 26-667)
chain: GGVGSLNLEELSEMRYGIEILPLPVMGGQSQSSDVVIVSSKYKQRYECRLPAGAIHFQREREEETPAYQGPGIPELLSPMRDAPCLLKTKDWWTYEFCYGRHIQQYHMEDSEIKGEVLYLGYYQSAFDWDDETAKASKQHRLKRYHSQTYGNGSKCDLNGRPREAEVRFLCDEGAGISGDYIDRVDEPLSCSYVLTIRTPRLCPHPLLRPPPSAAPQAILCHPSLQPEEYMAYVQRQADSKQYGDKIIEELQDLGPQVWSETKSGVAPQKMAGASPTKDDSKDSDFWKMLNEPEDQAPGGEEVPAEEQDPSPEAADSASGAPNDFQNNVQVKVIRSPADLIRFIEELKGGTKKGKPNIGQEQPVDDAAEVPQREPEKERGDPERQREMEEEEDEDEDEDEDEDERQLLGEFEKELEGILLPSDRDRLRSEVKAGMERELENIIQETEKELDPDGLKKESERDRAMLALTSTLNKLIKRLEEKQSPELVKKHKKKRVVPKKPPPSPQPTEEDPEHRVRVRVTKLRLGGPNQDLTVLEMKRENPQLKQIEGLVKELLEREGLTAAGKIEIKIVRPWAEGTEEGARWLTDEDTRNLKEIFFNILVPGAEEAQKERQRQKELESNYRRVWGSPGGEGTGDLDEFDF
not listed: [1]
binds: all other assays above
